Data: PubChem BioAssay AID1508600 (Functional Genomics Laboratory (NCATS/FGL), 2020)
The whole screen tested about 53,000 sequences, of which about 3,700 (7%) were called active.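 The calls were made as follows: active = gene knockdowns whose robust z-score for IL-1 alpha signal is at least 2 or at most -2, so actives lie on both sides; inactive = the rest.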 The list shows a part of the results.

Test: Components of the Cytosolic LPS Sensing Pathway: Gene Identification via Genome-wide siRNA Screen;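 also: robust z of the log signal after scaling to non-targeting control siRNA wells of the plate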
Details: RAW264.7 macrophages, IL-1a HTRF, actives lie on both sides, screened at 100 nM (by protocol), cells primed 5 h with Pam3CSK4 first
In short: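 RAW264.7; siRNA 100 nM final, RNAiMAX, 48h 37 degrees C; Pam3CSK4 5 h; LipidA + TransIT-TKO 24 h; IL-1a HTRF; CellTiter-Glo viability; robust z vs negative-control median.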

Row | Sequence | z-score
1 | GGAAAUUUCAGUCGAACAGTT against Arhgap31 | inactive: 0.333
2 | GCUGGAUCUCAAGAAAAAUTT against Pou4f2 | inactive: 0.0727
3 | GGUAUUUAAACUCUUGGGATT against Mpdu1 | inactive: -0.636
4 | GGAGAAAGCCAAAUUUAACTT against Slc17a6 | inactive: 0.103
5 | GACUCAUUCUGCAAUGAAGTT against Ifna5 | inactive: 0.105
6 | GGACUUCUACAUUGAACUUTT against Megf11 | inactive: 1.03
7 | CCCACUGGAAGAUUCAAACTT against Zfp623 | inactive: 0.441
8 | GGAGUUCAUUAUCUUGGCUTT against Rsad1 | inactive: 0.0698
9 | GGUACUGCCAUGUAGGAAATT against A330008L17Rik | inactive: 0.766
10 | CCUUUGGAAUUUCUAAUACTT against Stil | inactive: -0.286
11 | GGAGGUCCAGAAGAAUUAUTT against Pam16 | inactive: 0.957
12 | GGCUCCAGUCCGUUUUGAATT against Nrarp | inactive: 0.0759
13 | GCUAUUUGUCCACAAGUUCTT against Rab2a | inactive: 1.05
14 | GCUAAUUCCCUGGCCUCAATT against Tro | inactive: -0.627
15 | GGUGAAGUUGCCAAGAAAGTT against Reg3g | inactive: 0.223
16 | GGCAAAGAAGGAGAAAGUATT against Cd209c | active: -2.06
17 | GGGUGGUGUUCCAUGACAGTT against Ubp1 | inactive: -1.82
18 | GGAAGUACAAUGCAGAUUGTT against Vmn2r1 | inactive: 0.218
19 | GCCUCAAUGGCACUCAAAUTT against Mdc1 | inactive: -0.217
20 | GGGAAAAUCCACUUUUAAGTT against Hs2st1 | inactive: -0.0469
21 | GGCAUGUCGAUCUGACCUUTT against Kcnc1 | inactive: 1.18
22 | GGUCUGAAGUAUAGCAAUGTT against Dynll2 | inactive: -1.33
23 | GCUUCUGACUUGUGAUGUGTT against Ppp6r2 | inactive: -1.02
24 | GGACUAUCAGCAUUUCGUUTT against Coq10b | inactive: -0.94
25 | GGCCAACUCACCUUUCUAGTT against D630023F18Rik | inactive: 1.84
26 | GGCAAAAUUUUAUAAGCUGTT against Ttf1 | inactive: -1.31
27 | GCACAGCUAAACUUAACUATT against Taz | inactive: 0.711

Row | Sequence | z-score
28 | GGAUUUACAUUCUCAUUGUTT against Olfr995 | inactive: -1.38
29 | GGGAGAACUCCUGAUUGACTT against Nnmt | inactive: 0.467
30 | GCCUAACUAUGAAACUUCGTT against Ppp1r11 | inactive: 0.754
31 | GGCCUUCAGUCAAAUGGGATT against 4921536K21Rik | inactive: -1.55
32 | GGAGGAGCGGUUUUAUCAGTT against Ubxn8 | inactive: 0.899
33 | GGCAGUGAGAGUCACAAGATT against Cdipt | inactive: -1.74
34 | CCAAGUGGUACGACCAUGATT against Gcnt3 | inactive: 1.3
35 | GGAAGACCCACAAAGGCUUTT against Rpl3l | inactive: 0.686
36 | GCUUCAUCUCCUAAAGCCCTT against Ring1 | inactive: 0.176
37 | GGUGAAAGUCACUAAAUCCTT against Vmn1r15 | inactive: -1.39
38 | CCUCACCAAACCUUGUUGATT against Cd300lg | inactive: -1.57
39 | GGCCAUGCUGAAAGUAUUUTT against Olfr561 | inactive: -1.46
40 | GGACACAGACCUUUGUUAATT against Lpar6 | inactive: -0.0566
41 | GAGUAGGAAUUAGAAUGAUTT against Tmem47 | inactive: -0.00808
42 | GCGCGACCUUCGAAUGUAATT against Rnf5 | inactive: -0.834
43 | GCUCAUAAAGCUGUAUAAATT against Zik1 | inactive: 0.354
44 | CCGAAUUAAGAAAGUGGUUTT against Ap1g1 | inactive: -0.651
45 | GCCUCUGAACUGAAAAAAATT against Tmem204 | inactive: -1.29
46 | GCUUGGGUCAUAGGGAUGATT against Olfr1288 | inactive: -0.371
47 | CGAAGAUAAUUAUGGAGCCTT against Fat4 | inactive: 0.548
48 | GAAGCUUGUAGUGACUGCCTT against Vmn1r30 | inactive: -0.765
49 | CCUCAGAAUAAAUGAAUCCTT against Oxld1 | inactive: -1.82
50 | GCAGGACUUGACAAUAGUCTT against Itgb1bp2 | inactive: -1.1
51 | GGAAUAAAUGUCGUCCCUUTT against Marcksl1 | inactive: 0.194
52 | GGGCCUUCCAAAAAAGAAGTT against Tut7 | inactive: -0.383
53 | GGGCCAGUCAUUGAAGAUUTT against U2af2 | inactive: -1.13
54 | GGCCAUCUUUCUAUACAAATT against Bcl10 | inactive: 1.17

Reformatted tab-delimited: part of the list above
Row	Sequence	z-score
31	GGCCUUCAGUCAAAUGGGATT against 4921536K21Rik	inactive: -1.55
36	GCUUCAUCUCCUAAAGCCCTT against Ring1	inactive: 0.176
40	GGACACAGACCUUUGUUAATT against Lpar6	inactive: -0.0566
41	GAGUAGGAAUUAGAAUGAUTT against Tmem47	inactive: -0.00808
44	CCGAAUUAAGAAAGUGGUUTT against Ap1g1	inactive: -0.651
45	GCCUCUGAACUGAAAAAAATT against Tmem204	inactive: -1.29
46	GCUUGGGUCAUAGGGAUGATT against Olfr1288	inactive: -0.371
48	GAAGCUUGUAGUGACUGCCTT against Vmn1r30	inactive: -0.765
49	CCUCAGAAUAAAUGAAUCCTT against Oxld1	inactive: -1.82
50	GCAGGACUUGACAAUAGUCTT against Itgb1bp2	inactive: -1.1
51	GGAAUAAAUGUCGUCCCUUTT against Marcksl1	inactive: 0.194
52	GGGCCUUCCAAAAAAGAAGTT against Tut7	inactive: -0.383
54	GGCCAUCUUUCUAUACAAATT against Bcl10	inactive: 1.17
